Measurements: article PMC12592420, “A mismatch in enzyme-redox partnerships underlies divergent cytochrome P450 activities between human hepatocytes and microsomes” (Communications Biology, 2025)

What was measured:
in vitro [1] = details: human, hepatocytes
Method: Cryopreserved HH prepared from a mixed-gender pool of twenty donors (product X008000, lot EEO, BIOIVT), ten-donors (product S01205, lot MTJ, BIOIVT), ten donors (product S01205 lot LYB, BIOIVT) were utilised in the experiments. Cryopreserved HH were rapidly thawed in a water bath set at 37 °C and added to Leibovitz media that had been pre-warmed in the water bath. The suspension of cells was mixed gently and centrifuged at 40 × g for 4 min at room temperature. Excess media was removed, and the cells were re-suspended in 5 mL of fresh Leibovitz media. The cells were counted using an automated cell counter (Cellometer).

[2] = CLint in NADH-supplemented human liver microsomes; details: Fig. 4a,d
Method: (§1) Calculation and scaling of CLint,u was done using the equation below and 45 mg of microsomal protein per gram of liver. HLMCLint,u=ln2/x1/t1/2(min)xmLincubation/mgmicrosomalproteinx45mgmicrosomalprotein/gliverx21gliver/kg/Fuinc

in vitro [3] = details: human, Caco-2
[4] = CLint in NADPH-supplemented human liver microsomes; details: Fig. 4a,d
Method: as §1

[5] = Intrinsic permeability in Caco-2 cells with efflux inhibited; details: human

SMILES	hepatocyte CLint (in vitro [1]; both, HH_CLint) [µL/min/1e6 cells]	CLint scaled (in vitro [1]; HH_scaled_CLint,u) [mL/min/kg]	microsomal CLint at 1 µM ([2]; pH 7.4, HLM_NADH CLint, 1 µM, single determination) [µL/min/mg]	CLint scaled at 1 µM ([2]; pH 7.4, NADH_HLM_scaled_CLint,u) [mL/min/kg]	Papp (in vitro [3]) [×10⁻⁶ cm/s]	microsomal CLint at 1 µM ([4]; pH 7.4, HLM_NADPH CLint, 1 µM, single determination) [µL/min/mg]	CLint scaled at 1 µM ([4]; pH 7.4, NADPH_HLM_scaled_CLint,u) [mL/min/kg]	Papp at 2 h, 10 µM [5] [×10⁻⁶ cm/s]
CN1C(=O)CN=C(c2ccccc2)c2cc(Cl)ccc21 [Diazepam]	4.62	16.8	3	4.09	34.2	10.6	14.4	
NS(=O)(=O)c1cc(C(=O)O)c(NCc2ccco2)cc1Cl [Furosemide]								1.42
